Data as given in PMC5684335, “ER-associated degradation regulates Alzheimer’s amyloid pathology and memory function by modulating γ-secretase activity” (Nature Communications, 2017).

Chains of the proteins cited; added tags and fusions are not shown. Residues count along the entry.
UniProt Q8CIV2: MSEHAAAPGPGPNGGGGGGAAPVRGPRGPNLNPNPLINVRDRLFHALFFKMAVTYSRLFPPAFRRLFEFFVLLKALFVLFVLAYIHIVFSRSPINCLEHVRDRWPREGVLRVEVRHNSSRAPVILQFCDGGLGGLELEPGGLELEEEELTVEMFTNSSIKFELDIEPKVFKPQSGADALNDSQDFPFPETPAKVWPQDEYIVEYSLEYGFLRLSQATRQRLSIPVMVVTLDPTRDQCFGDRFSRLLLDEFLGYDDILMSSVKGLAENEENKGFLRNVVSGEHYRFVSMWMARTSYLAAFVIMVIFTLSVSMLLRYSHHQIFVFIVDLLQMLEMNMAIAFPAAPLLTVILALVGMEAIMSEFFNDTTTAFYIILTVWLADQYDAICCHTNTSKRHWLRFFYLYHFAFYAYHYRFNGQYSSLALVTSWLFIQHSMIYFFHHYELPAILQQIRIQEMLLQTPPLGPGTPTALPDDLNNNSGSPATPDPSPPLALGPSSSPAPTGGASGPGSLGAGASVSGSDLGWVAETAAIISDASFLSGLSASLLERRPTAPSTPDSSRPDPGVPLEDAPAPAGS
UniProt Q92542, residues 34-709: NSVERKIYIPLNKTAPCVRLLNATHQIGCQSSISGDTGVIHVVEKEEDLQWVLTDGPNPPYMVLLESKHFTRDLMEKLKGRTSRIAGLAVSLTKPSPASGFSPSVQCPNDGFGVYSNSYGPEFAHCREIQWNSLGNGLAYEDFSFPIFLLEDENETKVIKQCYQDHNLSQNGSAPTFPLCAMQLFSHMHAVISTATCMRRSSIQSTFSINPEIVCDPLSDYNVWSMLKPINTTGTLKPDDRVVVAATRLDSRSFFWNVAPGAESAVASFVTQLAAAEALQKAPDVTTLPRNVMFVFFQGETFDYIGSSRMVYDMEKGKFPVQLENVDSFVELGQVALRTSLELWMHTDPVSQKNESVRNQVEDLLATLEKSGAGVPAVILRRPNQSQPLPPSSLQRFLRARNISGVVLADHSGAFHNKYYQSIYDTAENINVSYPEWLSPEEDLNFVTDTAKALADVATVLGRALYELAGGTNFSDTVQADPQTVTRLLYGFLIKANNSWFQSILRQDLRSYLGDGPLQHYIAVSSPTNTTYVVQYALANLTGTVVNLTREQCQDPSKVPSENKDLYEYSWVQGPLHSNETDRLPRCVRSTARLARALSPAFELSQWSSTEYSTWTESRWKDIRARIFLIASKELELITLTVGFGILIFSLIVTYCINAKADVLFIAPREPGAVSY
UniProt Q7L5D6: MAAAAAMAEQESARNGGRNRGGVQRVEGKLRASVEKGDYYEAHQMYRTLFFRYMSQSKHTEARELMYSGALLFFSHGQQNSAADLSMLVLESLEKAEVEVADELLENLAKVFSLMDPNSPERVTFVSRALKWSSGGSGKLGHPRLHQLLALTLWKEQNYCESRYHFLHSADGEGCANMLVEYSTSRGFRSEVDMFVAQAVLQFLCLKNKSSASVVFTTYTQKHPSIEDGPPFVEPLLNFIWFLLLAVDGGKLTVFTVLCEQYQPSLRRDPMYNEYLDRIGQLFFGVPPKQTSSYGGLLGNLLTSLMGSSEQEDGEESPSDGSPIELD
UniProt Q99942: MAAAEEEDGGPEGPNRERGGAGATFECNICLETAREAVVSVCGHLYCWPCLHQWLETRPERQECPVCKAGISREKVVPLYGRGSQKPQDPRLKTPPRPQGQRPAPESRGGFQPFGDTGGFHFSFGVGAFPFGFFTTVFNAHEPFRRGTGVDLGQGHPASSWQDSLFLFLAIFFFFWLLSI
UniProt Q9UKV5: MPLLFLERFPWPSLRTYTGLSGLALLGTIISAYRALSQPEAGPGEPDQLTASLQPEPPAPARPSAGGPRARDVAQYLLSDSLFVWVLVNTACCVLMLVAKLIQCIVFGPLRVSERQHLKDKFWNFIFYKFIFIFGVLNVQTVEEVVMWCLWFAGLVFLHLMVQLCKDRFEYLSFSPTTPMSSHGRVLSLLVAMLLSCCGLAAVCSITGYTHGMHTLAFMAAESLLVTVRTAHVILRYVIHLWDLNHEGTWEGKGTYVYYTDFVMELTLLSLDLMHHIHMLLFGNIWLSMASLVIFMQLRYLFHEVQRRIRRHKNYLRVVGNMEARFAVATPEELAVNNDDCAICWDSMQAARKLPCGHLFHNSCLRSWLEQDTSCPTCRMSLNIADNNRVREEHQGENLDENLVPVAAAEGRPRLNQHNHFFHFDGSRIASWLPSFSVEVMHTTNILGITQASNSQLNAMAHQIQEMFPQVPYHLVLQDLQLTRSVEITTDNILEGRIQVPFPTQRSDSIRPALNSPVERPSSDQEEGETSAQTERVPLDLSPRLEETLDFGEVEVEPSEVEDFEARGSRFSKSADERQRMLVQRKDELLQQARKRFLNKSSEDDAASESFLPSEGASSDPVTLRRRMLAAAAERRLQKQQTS

B1: Ubac2 (endogenous, HEK293T) (protein, UniProt Q8NBM4 36-344)
chain: HCQKLFVYDLHAVKNDFQIWRLICGRIICLDLKDTFCSSLLIYNFRIFERRYGSRKFASFLLGSWVLSALFDFLLIEAMQYFFGITAASNLPSGFLAPVFALFVPFYCSIPRVQVAQILGPLSITNKTLIYILGLQLFTSGSYIWIVAISGLMSGLCYDSKMFQVHQVLCIPSWMAKFFSWTLEPIFSSSEPTSEARIGMGATLDIQRQQRMELLDRQLMFSQFAQGRRQRQQQGGMINWNRLFPPLRQRQNVNYQGGRQSEPAAPPLEVSEEQVARLMEMGFSRGDALEALRASNNDLNVATNFLLQH
B2: FAM8A1 (endogenous, HEK293T) (protein, UniProt Q9UBU6 1-413)
chain: MAEGPEEARGHPPGQDDGGGDHEPVPSLRGPPTTAVPCPRDDPQAEPQAPGRPTAPGLAAAAAADKLEPPRELRKRGEAASGSGAELQEQAGCEAPEAAAPRERPARLSAREYSRQVHEWLWQSYCGYLTWHSGLAAFPAYCSPQPSPQSFPSGGAAVPQAAAPPPPQLGYYNPFYFLSPGAAGPDPRTAAGISTPAPVAGLGPRAPHVQASVRATPVTRVGSAAPSRSPSETGRQAGREYVIPSLAHRFMAEMVDFFILFFIKATIVLSIMHLSGIKDISKFAMHYIIEEIDEDTSMEDLQKMMVVALIYRLLVCFYEIICIWGAGGATPGKFLLGLRVVTCDTSVLIAPSRVLVIPSSNVSITTSTIRALIKNFSIASFFPAFITLLFFQHNRTAYDIVAGTIVVKRNGVR
B3: TMEM66 (endogenous, HEK293T) (protein, UniProt Q96BY9 31-339)
chain: WNDPDRMLLRDVKALTLHYDRYTTSRRLDPIPQLKCVGGTAGCDSYTPKVIQCQNKGWDGYDVQWECKTDLDIAYKFGKTVVSCEGYESSEDQYVLRGSCGLEYNLDYTELGLQKLKESGKQHGFASFSDYYYKWSSADSCNMSGLITIVVLLGIAFVVYKLFLSDGQYSPPPYSEYPPFSHRYQRFTNSAGPPPPGFKSEFTGPQNTGHGATSGFGSAFTGQQGYENSGPGFWTGLGTGGILGYLFGSNRAATPFSDSWYYPSYPPSYPGTWNRAYSPLHGGSGSYSVCSNSDTKTRTASGYGGTRRR
B4: ERLEC1 (endogenous, HEK293T) (protein, UniProt Q96DZ1 34-483)
chain: LPQLSDDIPFRVNWPGTEFSLPTTGVLYKEDNYVIMTTAHKEKYKCILPLVTSGDEEEEKDYKGPNPRELLEPLFKQSSCSYRIESYWTYEVCHGKHIRQYHEEKETGQKINIHEYYLGNMLAKNLLFEKEREAEEKEKSNEIPTKNIEGQMTPYYPVGMGNGTPCSLKQNRPRSSTVMYICHPESKHEILSVAEVTTCEYEVVILTPLLCSHPKYRFRASPVNDIFCQSLPGSPFKPLTLRQLEQQEEILRVPFRRNKEEDLQSTKEERFPAIHKSIAIGSQPVLTVGTTHISKLTDDQLIKEFLSGSYCFRGGVGWWKYEFCYGKHVHQYHEDKDSGKTSVVVGTWNQEEHIEWAKKNTARAYHLQDDGTQTVRMVSHFYGNGDICDITDKPRQVTVKLKCKESDSPHAVTVYMLEPHSCQYILGVESPVICKILDTADENGLLSLPN
B5: HERPUD1 (endogenous, HEK293T) (protein, UniProt Q15011 1-391)
chain: MESETEPEPVTLLVKSPNQRHRDLELSGDRGWSVGHLKAHLSRVYPERPRPEDQRLIYSGKLLLDHQCLRDLLPKQEKRHVLHLVCNVKSPSKMPEINAKVAESTEEPAGSNRGQYPEDSSSDGLRQREVLRNLSSPGWENISRPEAAQQAFQGLGPGFSGYTPYGWLQLSWFQQIYARQYYMQYLAATAASGAFVPPPSAQEIPVVSAPAPAPIHNQFPAENQPANQNAAPQVVVNPGANQNLRMNAQGGPIVEEDDEINRDWLDWTYSAATFSVFLSILYFYSSLSRFLMVMGATVVMYLHHVGWFPFRPRPVQNFPNDGPPPDVVNQDPNNNLQEGTDPETEDPNHLPPDRDVLDGEQTSPSFMSTAWLVFKTFFASLLPEGPPAIAN
B6: OS9 (endogenous, HEK293T) (protein, UniProt Q13438 26-667)
chain: GGVGSLNLEELSEMRYGIEILPLPVMGGQSQSSDVVIVSSKYKQRYECRLPAGAIHFQREREEETPAYQGPGIPELLSPMRDAPCLLKTKDWWTYEFCYGRHIQQYHMEDSEIKGEVLYLGYYQSAFDWDDETAKASKQHRLKRYHSQTYGNGSKCDLNGRPREAEVRFLCDEGAGISGDYIDRVDEPLSCSYVLTIRTPRLCPHPLLRPPPSAAPQAILCHPSLQPEEYMAYVQRQADSKQYGDKIIEELQDLGPQVWSETKSGVAPQKMAGASPTKDDSKDSDFWKMLNEPEDQAPGGEEVPAEEQDPSPEAADSASGAPNDFQNNVQVKVIRSPADLIRFIEELKGGTKKGKPNIGQEQPVDDAAEVPQREPEKERGDPERQREMEEEEDEDEDEDEDEDERQLLGEFEKELEGILLPSDRDRLRSEVKAGMERELENIIQETEKELDPDGLKKESERDRAMLALTSTLNKLIKRLEEKQSPELVKKHKKKRVVPKKPPPSPQPTEEDPEHRVRVRVTKLRLGGPNQDLTVLEMKRENPQLKQIEGLVKELLEREGLTAAGKIEIKIVRPWAEGTEEGARWLTDEDTRNLKEIFFNILVPGAEEAQKERQRQKELESNYRRVWGSPGGEGTGDLDEFDF
B7: Erlin2 (endogenous, HEK293T) (protein, UniProt O94905 1-339)
chain: MAQLGAVVAVASSFFCASLFSAVHKIEEGHIGVYYRGGALLTSTSGPGFHLMLPFITSYKSVQTTLQTDEVKNVPCGTSGGVMIYFDRIEVVNFLVPNAVYDIVKNYTADYDKALIFNKIHHELNQFCSVHTLQEVYIELFDQIDENLKLALQQDLTSMAPGLVIQAVRVTKPNIPEAIRRNYELMESEKTKLLIAAQKQKVVEKEAETERKKALIEAEKVAQVAEITYGQKVMEKETEKKISEIEDAAFLAREKAKADAECYTAMKIAEANKLKLTPEYLQLMKYKAIASNSKIYFGKDIPNMFMDSAGSVSKQFEGLADKLSFGLEDEPLETATKEN

These molecules were tested against Myc-tagged mouse membralin (mouse) (UniProt Q8CIV2) (assay: affinity purification with mass spectrometry; Myc-tagged mouse membralin or empty Myc vector in HEK293T, 3 days; lysates in Digitonin, Triton X-100 or NP40 IP lysis buffer; anti-Myc magnetic beads overnight; LC-MS/MS, MaxQuant, human UniProt database).

binding	Molecule
binds	nicastrin (endogenous, HEK293T) (from UniProt Q92542 34-709)
binds	GET4 (endogenous, HEK293T) (from UniProt Q7L5D6 1-327)
binds	RNF5 (endogenous, HEK293T) (from UniProt Q99942 1-180)
binds	AMFR (endogenous, HEK293T) (from UniProt Q9UKV5 1-643)
binds	B1
binds	B2
binds	B3
binds	B4
binds	B5
binds	B6
binds	B7

No constants are given. Whether binding was seen depends on the method and setting. Binding seen in cells or lysates may run through a third protein. A yes stands for co-enrichment or nearness to the bait. Other partners may have been found.
